# Data published in article PMC4789730.
# Amino acid sequences for entries named in this document (tags omitted). Residues count along the entry.
# UniProt B2RHG4, residues 54-333: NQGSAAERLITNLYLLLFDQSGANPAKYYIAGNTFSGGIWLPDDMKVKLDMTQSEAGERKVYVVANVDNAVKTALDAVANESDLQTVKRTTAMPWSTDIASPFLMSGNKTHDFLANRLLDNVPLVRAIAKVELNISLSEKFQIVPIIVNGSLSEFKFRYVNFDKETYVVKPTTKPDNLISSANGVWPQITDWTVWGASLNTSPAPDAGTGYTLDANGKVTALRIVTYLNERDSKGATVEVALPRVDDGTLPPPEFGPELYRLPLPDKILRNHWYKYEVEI
# UniProt B2RHG5, residues 26-1228: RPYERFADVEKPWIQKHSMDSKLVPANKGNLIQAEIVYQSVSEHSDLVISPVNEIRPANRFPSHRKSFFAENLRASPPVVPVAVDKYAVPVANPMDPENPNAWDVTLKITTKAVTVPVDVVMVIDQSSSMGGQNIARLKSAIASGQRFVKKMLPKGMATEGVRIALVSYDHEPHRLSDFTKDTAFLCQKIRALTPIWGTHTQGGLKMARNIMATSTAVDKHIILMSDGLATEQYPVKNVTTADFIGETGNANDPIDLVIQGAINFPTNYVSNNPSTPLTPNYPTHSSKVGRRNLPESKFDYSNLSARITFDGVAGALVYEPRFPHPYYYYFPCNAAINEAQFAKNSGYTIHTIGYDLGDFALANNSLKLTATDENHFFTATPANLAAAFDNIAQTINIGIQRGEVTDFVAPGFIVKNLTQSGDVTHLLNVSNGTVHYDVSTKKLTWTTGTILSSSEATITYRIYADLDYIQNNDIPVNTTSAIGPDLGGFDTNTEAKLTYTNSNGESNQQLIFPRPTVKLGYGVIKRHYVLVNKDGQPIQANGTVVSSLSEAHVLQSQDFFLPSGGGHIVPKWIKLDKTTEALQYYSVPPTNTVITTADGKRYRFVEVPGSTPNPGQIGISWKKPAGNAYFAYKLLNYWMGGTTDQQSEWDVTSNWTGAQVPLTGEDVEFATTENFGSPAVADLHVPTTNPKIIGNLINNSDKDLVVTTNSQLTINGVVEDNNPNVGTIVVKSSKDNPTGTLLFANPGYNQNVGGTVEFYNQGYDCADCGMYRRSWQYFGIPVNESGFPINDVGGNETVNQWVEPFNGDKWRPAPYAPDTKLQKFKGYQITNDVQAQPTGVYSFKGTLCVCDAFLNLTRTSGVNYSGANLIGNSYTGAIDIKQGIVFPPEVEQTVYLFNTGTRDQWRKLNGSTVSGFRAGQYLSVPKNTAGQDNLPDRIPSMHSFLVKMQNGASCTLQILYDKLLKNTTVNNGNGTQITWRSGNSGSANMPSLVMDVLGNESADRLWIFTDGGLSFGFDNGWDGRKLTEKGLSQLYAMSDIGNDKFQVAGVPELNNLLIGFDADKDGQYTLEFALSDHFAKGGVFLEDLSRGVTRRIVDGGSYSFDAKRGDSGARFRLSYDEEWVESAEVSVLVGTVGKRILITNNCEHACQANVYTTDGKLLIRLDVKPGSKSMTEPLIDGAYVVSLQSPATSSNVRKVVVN
# UniProt B2RHG3, residues 44-446: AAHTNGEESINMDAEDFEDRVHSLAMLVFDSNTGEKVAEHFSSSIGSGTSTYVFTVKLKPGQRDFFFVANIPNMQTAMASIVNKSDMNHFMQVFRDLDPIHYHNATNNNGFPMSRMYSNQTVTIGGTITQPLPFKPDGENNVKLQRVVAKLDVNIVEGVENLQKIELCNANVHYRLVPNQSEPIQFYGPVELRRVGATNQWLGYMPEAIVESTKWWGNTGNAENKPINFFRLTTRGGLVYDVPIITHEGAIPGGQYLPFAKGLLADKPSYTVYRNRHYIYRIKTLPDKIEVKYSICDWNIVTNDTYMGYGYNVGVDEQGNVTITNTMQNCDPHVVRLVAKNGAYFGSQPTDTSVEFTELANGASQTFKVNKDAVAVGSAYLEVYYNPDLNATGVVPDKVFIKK
# These are yes or no findings as the source states them, for the method shown. Some binding calls cover weakened binding; strength is not graded here.
# Biological target: T1, Mfa1 (Porphyromonas gingivalis (endogenous in strain JI-1)) (UniProt B2RHG1)
# T1 sequence: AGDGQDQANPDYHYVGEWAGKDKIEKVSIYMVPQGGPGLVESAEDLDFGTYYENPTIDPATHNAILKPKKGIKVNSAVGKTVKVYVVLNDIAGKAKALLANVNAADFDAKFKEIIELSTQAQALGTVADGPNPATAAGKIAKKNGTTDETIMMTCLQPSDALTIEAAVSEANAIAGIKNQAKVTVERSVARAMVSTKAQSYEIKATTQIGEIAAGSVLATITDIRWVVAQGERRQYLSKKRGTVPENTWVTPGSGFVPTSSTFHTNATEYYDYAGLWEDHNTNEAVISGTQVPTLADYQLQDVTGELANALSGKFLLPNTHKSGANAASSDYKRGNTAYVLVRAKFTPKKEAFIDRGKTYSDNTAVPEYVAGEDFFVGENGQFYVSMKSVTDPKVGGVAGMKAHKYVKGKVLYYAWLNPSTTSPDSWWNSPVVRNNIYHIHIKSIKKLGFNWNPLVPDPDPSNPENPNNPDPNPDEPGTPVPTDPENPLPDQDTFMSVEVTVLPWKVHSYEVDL
# Assay: co-purification of native fimbriae; Mfa1 fimbriae purified from P. gingivalis cells (French press, ultracentrifugation, 50% ammonium sulfate, ion exchange and size exclusion chromatography); components seen by SDS-PAGE (CBB), anti-Mfa4 immunoblot and N-terminal sequencing
row,Substance,binding
1,"Mfa4, mature form (wild type) (from UniProt B2RHG4 54-333)",binds
2,Mfa5 (from UniProt B2RHG5 26-1228),binds
3,Mfa3 (from UniProt B2RHG3 44-446),binds
